The values below come from patent publication US20160130577.

By UniProt entry, the sequences of proteins in these tests, tags left out. Where a name states a change or a piece, a line headed by the entry shows the natural chain unless it says otherwise.
UniProt P22626: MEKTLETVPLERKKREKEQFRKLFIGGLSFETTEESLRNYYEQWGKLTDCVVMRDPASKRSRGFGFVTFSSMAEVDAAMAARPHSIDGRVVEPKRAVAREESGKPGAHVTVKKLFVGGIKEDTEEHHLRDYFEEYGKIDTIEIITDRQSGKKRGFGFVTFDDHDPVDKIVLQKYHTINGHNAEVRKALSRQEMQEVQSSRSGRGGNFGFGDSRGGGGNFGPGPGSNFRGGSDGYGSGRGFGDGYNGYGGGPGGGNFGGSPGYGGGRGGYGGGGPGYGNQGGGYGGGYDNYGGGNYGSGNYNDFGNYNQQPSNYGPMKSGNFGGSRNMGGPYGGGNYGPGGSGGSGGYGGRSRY

For at least one entry, the source does not settle the construct or the ends of the probe. For some assays here: Where cells or extracts were used, other partners may take part. For some assays here: Negatives hold for the conditions tested.

Series [1] concerns the target hnRNPA2B1 (Homo sapiens) (UniProt P22626). Nature of the series: binding assay. To be noted: UV crosslink RNP immunoprecipitation and qPCR; protein in an extract; protein details: endogenous, EV lysate of T cells.
Series [2] shares this target. Nature of the series: EMSA. To be noted: 5 mM MgCl2, 40 mM KCl, tRNA; purified recombinant protein; protein details: purified human protein, Origene; label: biotin. In general terms: Mobility shift assays separate free from complexed probe on a gel.

Take “CAAAGUGCUUACAGUGCAGGUAG [miR-17 (endogenous)]”: the binding result with hnRNPA2B1 (Homo sapiens) [1] is “no binding”. Turning to UGGUCUAGGAUUGUUGGAGGAG [miR-601], in the series with hnRNPA2B1 (Homo sapiens) [2], the binding result is on record as “binds”.
